The list shows a part of the results. Many values rest on one well or one pass, so single values are uncertain.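 Imaging used 1,536-well plates; nuclei positive for cleaved PARP by antibody were divided by total DNA-stained nuclei to yield the apoptosis fraction. Doses for screening kept most cells viable, and cell lines differ markedly in resting and induced cleaved-PARP levels.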

The subject of the first assay is CBRC016 (line from a melanoma biopsy). The assay is described as follows: cleaved PARP positive nuclei fraction relative to DMSO control; melanoma cells; higher = more apoptosis. The note with it: library dose: low library concentration; 72 h.
For `Cn1cnc2c(F)c(Nc3ccc(Br)cc3Cl)c(C(=O)NOCCO)cc21` [selumetinib] + Oc1cc(-c2nc(-c3ccccc3)[nH]c2-c2ccncc2)ccc1Cl [L779450] (first compound 0.015 µM, partner dose 0.2 µM), the “cleaved PARP positive nuclei fraction” value was found to be 60.3%.
Same read-out and setting: to `Cn1sc(=O)n(Cc2ccccc2)c1=O` + CCCCCCCCCCCC1=C(O)C(=O)C=C(O)C1=O [Embelin] (first compound 0.4 µM, partner dose 1.2 µM) belongs 29.3%; to `CCN(CC)CCNC(=O)c1c(C)[nH]c(/C=C2\C(=O)Nc3ccc(F)cc32)c1C` [sunitinib] + CCc1ccc(CCOc2ccc(CC3SC(=O)NC3=O)cc2)nc1 [pioglitazone] (first compound 0.4 µM, partner dose 2 µM), 76.4%.

For another assay, the system named is CBRC017 (line from a melanoma biopsy). The assay is described as above. The conditions noted are these: library dose: low library concentration; 72 h.
As for `C[C@]1(O)C[C@@H](c2nc(-c3ccc4ccc(-c5ccccc5)nc4c3)c3c(N)nccn32)C1` + C[C@@H]1CCN(C(=O)CC#N)C[C@@H]1N(C)c1ncnc2[nH]ccc12 [CP690550] (first compound 0.4 µM, partner dose 1 µM), the “cleaved PARP positive nuclei fraction” value was found to be 117%.
The same measure, in the same setting: the result for `Cn1sc(=O)n(Cc2ccccc2)c1=O` + NCC(=O)Nc1ccc(-n2nc(C(F)(F)F)cc2-c2ccc3c(ccc4ccccc43)c2)cc1 [OSU03012] (first compound 0.4 µM, partner dose 1 µM) reads 138%; that for `Cn1sc(=O)n(Cc2ccccc2)c1=O` + COc1cc2ncnc(Nc3ccc(Oc4ccccc4)cc3)c2cc1OC [SrcI1] (first compound 0.4 µM, partner dose 2 µM), 108%.
Still for that read-out and setting: to `Cn1cnc2c(F)c(Nc3ccc(Br)cc3Cl)c(C(=O)NOCCO)cc21` [selumetinib] + Oc1nc(-c2ccc(C(F)(F)F)cc2)nc2c1CSCC2 [XAV939] (first compound 0.015 µM, partner dose 2 µM) belongs 78.8%; to `CCCCCCCCc1ccc(CCC(N)(CO)CO)cc1` [fingolimod] + O=C(CCCCCCC(=O)Nc1ccccc1)NO [vorinostat] (first compound 2 µM, partner dose 0.08 µM), 99.1%.
On the same count and under the same terms, to `NC1(c2ccc(-c3nc4ccn5c(=O)[nH]nc5c4cc3-c3ccccc3)cc2)CCC1` + COc1cc2ncnc(Nc3ccc(Oc4ccccc4)cc3)c2cc1OC [SrcI1] (first compound 0.4 µM, partner dose 2 µM) belongs 128%; to `CCCCCCCCc1ccc(CCC(N)(CO)CO)cc1` [fingolimod] + Cc1ccc(NC(=O)c2cccc(N(C)C)c2)cc1NC(=O)c1ccc(O)cc1 [ZM336372] (first compound 2 µM, partner dose 2 µM), 143%.
`Cn1sc(=O)n(Cc2ccccc2)c1=O` + Cn1cc(/C=C2\C(=O)Nc3cccnc32)c2ccccc21 [GW441756] (first compound 0.4 µM, partner dose 0.4 µM): the “cleaved PARP positive nuclei fraction” value came to 87.5%.
With `CCN(CC)CCNC(=O)c1c(C)[nH]c(/C=C2\C(=O)Nc3ccc(F)cc32)c1C` [sunitinib] + CC1(C)NC(=O)N(c2ccc([N+](=O)[O-])c(C(F)(F)F)c2)C1=O [nilutamide] (first compound 0.4 µM, partner dose 1 µM), the “cleaved PARP positive nuclei fraction” value came out at 256%.
Consider `CN(c1ncccc1CNc1nc(Nc2ccc3c(c2)CC(=O)N3)ncc1C(F)(F)F)S(C)(=O)=O` + COc1cc2c(Oc3ccc4[nH]c(C)cc4c3F)ncnc2cc1OCCCN1CCCC1 [cediranib] (first compound 0.08 µM, partner dose 0.4 µM), for which the “cleaved PARP positive nuclei fraction” value was 109%.
On to `C[C@@H](N)c1ccc(C(=O)Nc2ccnc3[nH]ccc23)cc1` + COc1cc2ncnc(Nc3ccc(Oc4ccccc4)cc3)c2cc1OC [SrcI1] (first compound 0.4 µM, partner dose 2 µM), for which the “cleaved PARP positive nuclei fraction” value amounted to 106%.
In the case of `CCCCCCCCc1ccc(CCC(N)(CO)CO)cc1` [fingolimod] + Oc1cc(-c2nc(-c3ccccc3)[nH]c2-c2ccncc2)ccc1Cl [L779450] (first compound 2 µM, partner dose 0.2 µM), the “cleaved PARP positive nuclei fraction” value was determined as 94.5%.
Regarding `C[C@@H](N)c1ccc(C(=O)Nc2ccnc3[nH]ccc23)cc1` + O=S(=O)(c1ccccc1)N(CC(F)(F)F)c1ccc(C(O)(C(F)(F)F)C(F)(F)F)cc1 [T0901317] (first compound 0.4 µM, partner dose 1.4 µM), the “cleaved PARP positive nuclei fraction” value turned out to be 119%.
Still for that read-out and setting: to `CN(c1ncccc1CNc1nc(Nc2ccc3c(c2)CC(=O)N3)ncc1C(F)(F)F)S(C)(=O)=O` + O=c1cc(-c2cccc3c2Sc2ccccc2S3)oc(N2CCOCC2)c1 [KU55933] (first compound 0.08 µM, partner dose 1 µM) belongs 99.5%.
The same measure, in the same setting: to `C[C@]1(O)C[C@@H](c2nc(-c3ccc4ccc(-c5ccccc5)nc4c3)c3c(N)nccn32)C1` + CCc1ccc(CCOc2ccc(CC3SC(=O)NC3=O)cc2)nc1 [pioglitazone] (first compound 0.4 µM, partner dose 2 µM) belongs 133%; to `C[C@]1(O)C[C@@H](c2nc(-c3ccc4ccc(-c5ccccc5)nc4c3)c3c(N)nccn32)C1` + COc1ccc2c(c1)CCC1C2CCC2(C)C(NCCCCCCN3C(=O)C=CC3=O)CCC12 [U73122] (first compound 0.4 µM, partner dose 0.4 µM), 120%; to `C[C@]1(O)C[C@@H](c2nc(-c3ccc4ccc(-c5ccccc5)nc4c3)c3c(N)nccn32)C1` + O=C1NC(=O)/C(=C/c2ccc(-c3ccc(F)cc3O)o2)S1 [AS252424] (first compound 0.4 µM, partner dose 1 µM), 93.1%.
For the compound `CC1(C)CCC(c2ccc(Cl)cc2)=C(CN2CCN(c3ccc(C(=O)NS(=O)(=O)c4ccc(N[C@H](CCN5CCOCC5)CSc5ccccc5)c(S(=O)(=O)C(F)(F)F)c4)cc3)CC2)C1` + O=C(Nc1cccc(Cl)c1)Nc1ncc(CCNc2ncnc3ccsc23)s1 [SNS314] (first compound 0.4 µM, partner dose 0.0008 µM), the “cleaved PARP positive nuclei fraction” value stood at 378%.
Same read-out and setting: to `C[C@]1(O)C[C@@H](c2nc(-c3ccc4ccc(-c5ccccc5)nc4c3)c3c(N)nccn32)C1` + O=C(Nc1ccccc1)c1cc([N+](=O)[O-])ccc1Cl [GW9662] (first compound 0.4 µM, partner dose 2 µM) belongs 95.3%; to `NC1(c2ccc(-c3nc4ccn5c(=O)[nH]nc5c4cc3-c3ccccc3)cc2)CCC1` + Cc1cc(N2CCOCC2)cc2[nH]c(-c3c(NC[C@@H](O)c4cccc(Cl)c4)cc[nH]c3=O)nc12 [BMS536924] (first compound 0.4 µM, partner dose 0.2 µM), 193%.
`CCN(CC)CCNC(=O)c1c(C)[nH]c(/C=C2\C(=O)Nc3ccc(F)cc32)c1C` [sunitinib] + O=c1cc(-c2cccc3c2Sc2ccccc2S3)oc(N2CCOCC2)c1 [KU55933] (first compound 0.4 µM, partner dose 1 µM): the “cleaved PARP positive nuclei fraction” value is 67.1%.
As to `CS(=O)(=O)c1ccc(C(=O)Nc2ccc(Cl)c(-c3ccccn3)c2)c(Cl)c1` [vismodegib] + CN(NC(=O)CC(=O)NN(C)C(=S)c1ccccc1)C(=S)c1ccccc1 [STA4783] (first compound 1 µM, partner dose 0.006 µM), the “cleaved PARP positive nuclei fraction” value is 168%.
Still for that read-out and setting: the result for `Cn1cnc2c(F)c(Nc3ccc(Br)cc3Cl)c(C(=O)NOCCO)cc21` [selumetinib] + C=CCNC1=C2C[C@@H](C)C[C@H](OC)[C@H](O)[C@@H](C)/C=C(\C)[C@H](OC(N)=O)[C@@H](OC)/C=C\C=C(/C)C(=O)NC(=CC1=O)C2=O [Tanespimycin] (first compound 0.015 µM, partner dose 0.002 µM) reads 302%.
Same read-out and setting: to `Cn1cnc2c(F)c(Nc3ccc(Br)cc3Cl)c(C(=O)NOCCO)cc21` [selumetinib] + O=S(=O)(c1ccccc1)N(CC(F)(F)F)c1ccc(C(O)(C(F)(F)F)C(F)(F)F)cc1 [T0901317] (first compound 0.015 µM, partner dose 1.4 µM) belongs 134%.
The same measure, in the same setting: the result for `NC1(c2ccc(-c3nc4ccn5c(=O)[nH]nc5c4cc3-c3ccccc3)cc2)CCC1` + O=C(O)C(=O)Nc1sc2c(c1C(=O)O)CCNC2 [TCS401] (first compound 0.4 µM, partner dose 1.66667 µM) reads 71%; that for `CC1(C)CCC(c2ccc(Cl)cc2)=C(CN2CCN(c3ccc(C(=O)NS(=O)(=O)c4ccc(N[C@H](CCN5CCOCC5)CSc5ccccc5)c(S(=O)(=O)C(F)(F)F)c4)cc3)CC2)C1` + Nc1nc(F)nc2c1ncn2[C@@H]1O[C@H](CO)[C@@H](O)[C@@H]1O [fludarabine] (first compound 0.4 µM, partner dose 0.2 µM), 365%; that for `Cn1sc(=O)n(Cc2ccccc2)c1=O` + C=CCNC1=C2C[C@@H](C)C[C@H](OC)[C@H](O)[C@@H](C)/C=C(\C)[C@H](OC(N)=O)[C@@H](OC)/C=C\C=C(/C)C(=O)NC(=CC1=O)C2=O [Tanespimycin] (first compound 0.4 µM, partner dose 0.002 µM), 84.1%.
With `Cn1cnc2c(F)c(Nc3ccc(Br)cc3Cl)c(C(=O)NOCCO)cc21` [selumetinib] + COc1ccc2c(c1)CCC1C2CCC2(C)C(NCCCCCCN3C(=O)C=CC3=O)CCC12 [U73122] (first compound 0.015 µM, partner dose 0.4 µM), the “cleaved PARP positive nuclei fraction” value amounted to 160%.
Still for that read-out and setting: the result for `CCCCCCCCc1ccc(CCC(N)(CO)CO)cc1` [fingolimod] + CC(C)(C)c1cnc(CSc2cnc(NC(=O)C3CCNCC3)s2)o1 [SNS-032] (first compound 2 µM, partner dose 0.01 µM) reads 173%.

(Values after the supplement of paper PMC4604168 (melanoma cell lines).)
